This passage reports binding results from publication PMC8626583, “Collagen’s primary structure determines collagen:HSP47 complex stoichiometry” (The Journal of Biological Chemistry, 2021).

Results are given in words; binding and its absence hold for the method and conditions named. Binding calls can cover weak binding; strength is not graded here.

The assay concerns the target T1, collagen model peptide Ac-(PPG)2PTGPRG(PPG)2-NH2.
T1 sequence (peptide, N-terminal acetyl (Ac); C-terminal amide (NH2)): PPGPPGPTGPRGPPGPPG
Description: crystal structure; HSP47 H273N/H274N with Ac-(PPG)2PTGPRG(PPG)2-NH2, space group P2_(1); crystallization conditions not told; both purified.

Regarding “HSP47 double-mutant H273N/H274N (Canis lupus)”, the binding result is “binds”.
